# Test results taken from patent CN115819587A.
# Chains of the proteins cited; added tags and fusions are not shown. Residues count along the entry.
# UniProt P26715, residues 94-233: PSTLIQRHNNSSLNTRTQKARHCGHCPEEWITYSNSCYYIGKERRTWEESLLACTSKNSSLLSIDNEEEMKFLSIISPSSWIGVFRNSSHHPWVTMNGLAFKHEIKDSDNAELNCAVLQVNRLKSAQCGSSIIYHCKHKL
# Residue numbers refer to the chain shown, from its start. No constants are given. Whether binding was seen depends on the method and setting. Some binding calls cover weakened binding; strength is not graded here. Where a sequence is shown, tags or fusion partners need not be part of it.
# B1: 人源化全抗分子 HA-1-IgG1 (antibody, V domains shown, not shown: a dimerising Fc or GST)
# VH: EVQLVESGGGLVKPGGSLRLSCAASGFTFSDYDMSWVRQAPGKGLEWVSTISSGGSYTYYPDSVKGRFTISRDNAKNSLYLQMNSLRAEDTAVYYCTSPRQVGLRKAFDYWGQGTTVTVSS
# VL: DVVMTQSPAFLSVTPGEKVTITCSASSSVSYMYWYQQKPDQAPKLLIKLTSNLASGVPSRFSGSGSGTDFTFTISSLEAEDAATYYCQQWSSNPFTFGQGTKLEIKR
# B2: 人源化全抗分子 HA-2-IgG1 (antibody, V domains shown, not shown: a dimerising Fc or GST)
# VH: B1 VH with T28A, S49A
# VL: B1 VL with V2I, M4V
# B3: 嵌合抗体CA-1 (MA-1 variable regions with human IgG1 / human Ck constant regions) (antibody, V domains shown)
# VH: EVKLEESGGGLVKPGGSLKLSCAASGFAFSDYDMSWVRQTPEKRLEWVATISSGGSYTYYPDSVKGRFTISRDNARNTLYLQMSSLRSEDTALYYCTSPRQVGLRKAFDYWGQGTTLTVSS
# VL: DIVVTQSPALMSASPGEKVTMTCSASSSVSYMYWYQQKPRSSPKSWIYLTSNLASGVPARFSGSGSGTSYSLTISSMEAEDAATYYCQQWSSNPFTFGSGTKLEIKR
# Target: NKG2A抗原 (NKG2A蛋白胞外段) (human) (UniProt P26715)
# Assay: ELISA on coated NKG2A antigen (200 ng/well), Goat Anti Human IgG-HRP
row,Binder,binding
1,B1,binds
2,B2,binds
3,B3,binds
